# Laboratory results as given in patent US9714247B2, “Multiple kinase pathway inhibitors” (Mannkind Corporation, priority 2012, dated 2017).
# The match of structure and compound is tentative.
# Experiments:
# [1] = tested on: phosphorylation of SFKs in Ramos cells; assay: SFK phosphorylation (Tyr 416) by flow cytometry; settings: 0.3 uM, SFK phosphorylated at Tyr 416
# Ramos = assay: CellTiter-Glo proliferation/viability assay; assay type: cell-based, human; settings: read-out: Ramos EC50
# DoHH2 = assay: CellTiter-Glo proliferation/viability assay; assay type: cell-based, human; settings: read-out: DoHH2 EC50
# [2] = tested on: PLCγ2 phosphorylation in Ramos cells; assay: PLCγ2 phosphorylation by flow cytometry
smiles,measurement,setting,value
CCN(CC)CCOc1ccc(Nc2cc3c(cn2)cc(-c2ccccc2)c(=O)n3C(C)CO)nc1 (centres unmarked),pSRC % inhibition,[1],18%
same,EC50,Ramos,1000 to 10000 nM
same,EC50,DoHH2,< 1000 nM
same,pPLCγ % inhibition,"[2]; 0.3 uM, anti-phospho PLCγ2 (Tyr759)",12%
same,EC50,"[2]; read-out: Inhibition of phosphorylation of PLC-γ2 EC50, anti-phospho PLCγ2 (Tyr1217), four concentrations",> 3000 nM
